Measured values: publication PMC3514159
These are yes or no findings as the source states them, for the method shown. Some binding calls cover weakened binding; strength is not graded here.

The chains behind the UniProt entries cited, without tags or fusion partners.
UniProt Q9BYR7: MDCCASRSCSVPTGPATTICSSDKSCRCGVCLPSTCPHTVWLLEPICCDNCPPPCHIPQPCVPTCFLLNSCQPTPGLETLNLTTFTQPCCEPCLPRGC
UniProt O75865: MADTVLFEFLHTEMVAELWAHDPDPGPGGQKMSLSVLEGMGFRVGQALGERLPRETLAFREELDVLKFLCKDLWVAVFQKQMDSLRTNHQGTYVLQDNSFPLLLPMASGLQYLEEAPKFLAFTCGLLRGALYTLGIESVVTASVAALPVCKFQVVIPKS
UniProt P49639: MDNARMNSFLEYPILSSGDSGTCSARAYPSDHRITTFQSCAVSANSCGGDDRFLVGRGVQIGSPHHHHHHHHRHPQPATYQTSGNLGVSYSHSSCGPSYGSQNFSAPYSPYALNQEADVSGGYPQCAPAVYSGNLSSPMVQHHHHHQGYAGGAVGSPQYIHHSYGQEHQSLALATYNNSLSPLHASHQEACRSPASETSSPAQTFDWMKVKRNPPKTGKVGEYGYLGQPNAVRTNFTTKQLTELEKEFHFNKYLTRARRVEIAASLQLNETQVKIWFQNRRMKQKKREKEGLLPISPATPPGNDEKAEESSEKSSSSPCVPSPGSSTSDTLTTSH
UniProt P09022: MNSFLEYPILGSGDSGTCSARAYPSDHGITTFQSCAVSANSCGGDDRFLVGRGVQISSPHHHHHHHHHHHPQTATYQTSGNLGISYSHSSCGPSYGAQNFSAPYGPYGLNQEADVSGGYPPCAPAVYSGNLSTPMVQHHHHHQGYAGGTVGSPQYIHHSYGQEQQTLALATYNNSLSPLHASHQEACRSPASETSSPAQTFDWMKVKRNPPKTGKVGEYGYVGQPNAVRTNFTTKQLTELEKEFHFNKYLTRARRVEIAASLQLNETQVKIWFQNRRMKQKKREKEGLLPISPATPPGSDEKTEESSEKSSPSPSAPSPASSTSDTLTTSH

Experiments:
Assay in all cases: two-hybrid; AD-Hoxa1 (Gal4 activation domain) in MATa Y8800 mated with the DB-hORF library in MATα Y8930; 30°C; selection on Sc-L-T-H + 1 mM 3AT, retest on Sc-L-T-H, Sc-L-T-A and Sc-L-T-H-A+3AT
[1] = molecular target: T1, hydroxy-delta-5-steroid dehydrogenase, 3 β- and steroid delta-isomerase 7 (human) (UniProt Q9H2F3)
T1 sequence: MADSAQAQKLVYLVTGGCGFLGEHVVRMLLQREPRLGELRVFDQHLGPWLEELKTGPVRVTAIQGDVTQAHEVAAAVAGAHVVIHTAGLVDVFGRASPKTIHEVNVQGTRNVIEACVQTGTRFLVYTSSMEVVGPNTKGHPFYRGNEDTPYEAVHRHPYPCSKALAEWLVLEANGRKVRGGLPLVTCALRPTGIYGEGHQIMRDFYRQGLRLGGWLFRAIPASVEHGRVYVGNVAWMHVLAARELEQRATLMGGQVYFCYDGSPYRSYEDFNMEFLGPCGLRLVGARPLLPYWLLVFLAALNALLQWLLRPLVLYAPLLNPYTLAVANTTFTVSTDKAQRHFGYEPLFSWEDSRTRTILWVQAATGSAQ

[2] = molecular target: keratin associated protein 3-2 (human) (UniProt Q9BYR7)
dickkopf-like 1 (human) = molecular target: T2, dickkopf-like 1 (human) (UniProt Q9UK85)
T2 sequence: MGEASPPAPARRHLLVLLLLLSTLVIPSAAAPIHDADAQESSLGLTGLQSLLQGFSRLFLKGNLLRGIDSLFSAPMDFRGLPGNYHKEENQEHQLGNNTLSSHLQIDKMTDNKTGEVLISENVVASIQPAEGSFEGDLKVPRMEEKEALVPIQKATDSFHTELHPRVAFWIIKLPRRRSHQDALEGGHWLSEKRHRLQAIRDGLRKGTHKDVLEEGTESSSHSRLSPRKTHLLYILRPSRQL

[3] = molecular target: trafficking protein particle complex 6A (human) (UniProt O75865)
[4] = molecular target: T3, zinc finger, ZZ-type containing 3 (human) (UniProt Q8IYH5)
T3 sequence: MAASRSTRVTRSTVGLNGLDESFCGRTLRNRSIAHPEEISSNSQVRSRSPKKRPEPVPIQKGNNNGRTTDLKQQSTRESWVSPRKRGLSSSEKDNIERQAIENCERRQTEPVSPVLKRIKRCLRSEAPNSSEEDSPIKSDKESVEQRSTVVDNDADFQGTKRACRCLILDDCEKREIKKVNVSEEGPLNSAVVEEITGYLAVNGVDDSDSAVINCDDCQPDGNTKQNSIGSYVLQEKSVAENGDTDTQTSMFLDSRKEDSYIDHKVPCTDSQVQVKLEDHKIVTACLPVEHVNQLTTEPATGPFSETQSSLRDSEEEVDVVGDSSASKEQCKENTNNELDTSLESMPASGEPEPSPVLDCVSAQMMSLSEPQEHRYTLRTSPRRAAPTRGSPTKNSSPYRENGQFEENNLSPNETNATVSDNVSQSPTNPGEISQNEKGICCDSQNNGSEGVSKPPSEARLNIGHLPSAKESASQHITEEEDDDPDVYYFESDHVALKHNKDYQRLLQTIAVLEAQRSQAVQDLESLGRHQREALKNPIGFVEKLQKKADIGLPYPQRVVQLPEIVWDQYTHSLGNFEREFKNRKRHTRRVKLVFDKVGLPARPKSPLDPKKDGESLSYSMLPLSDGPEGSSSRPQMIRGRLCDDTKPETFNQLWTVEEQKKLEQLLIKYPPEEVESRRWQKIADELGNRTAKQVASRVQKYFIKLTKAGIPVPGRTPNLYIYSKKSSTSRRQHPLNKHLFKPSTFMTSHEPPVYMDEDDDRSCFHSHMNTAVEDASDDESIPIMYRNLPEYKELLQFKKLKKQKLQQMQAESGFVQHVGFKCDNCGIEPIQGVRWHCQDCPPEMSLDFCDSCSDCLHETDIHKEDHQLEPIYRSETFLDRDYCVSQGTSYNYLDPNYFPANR

homeobox A1 (human) = homeobox A1 (human) (UniProt P49639)
[5] = molecular target: T4, keratin associated protein 26-1 (human) (UniProt Q6PEX3)
T4 sequence: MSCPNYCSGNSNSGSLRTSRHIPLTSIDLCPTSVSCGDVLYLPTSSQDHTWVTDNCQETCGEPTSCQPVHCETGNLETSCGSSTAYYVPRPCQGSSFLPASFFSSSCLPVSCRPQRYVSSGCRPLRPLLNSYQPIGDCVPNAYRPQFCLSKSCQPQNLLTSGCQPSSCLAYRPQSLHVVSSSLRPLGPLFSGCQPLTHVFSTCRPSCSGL

Measured: binding

Hoxa1 (from UniProt P09022 1-331)
binds: all assays above
